Measurements published in PMC11603662.
Results are given in words; binding and its absence hold for the method and conditions named. Binding seen in cells or lysates may run through a third protein. Some entries that bind do so weakly or less than the wild type.

Sequences of proteins named here, by UniProt entry; tags and fusion partners are left off.
UniProt P54282: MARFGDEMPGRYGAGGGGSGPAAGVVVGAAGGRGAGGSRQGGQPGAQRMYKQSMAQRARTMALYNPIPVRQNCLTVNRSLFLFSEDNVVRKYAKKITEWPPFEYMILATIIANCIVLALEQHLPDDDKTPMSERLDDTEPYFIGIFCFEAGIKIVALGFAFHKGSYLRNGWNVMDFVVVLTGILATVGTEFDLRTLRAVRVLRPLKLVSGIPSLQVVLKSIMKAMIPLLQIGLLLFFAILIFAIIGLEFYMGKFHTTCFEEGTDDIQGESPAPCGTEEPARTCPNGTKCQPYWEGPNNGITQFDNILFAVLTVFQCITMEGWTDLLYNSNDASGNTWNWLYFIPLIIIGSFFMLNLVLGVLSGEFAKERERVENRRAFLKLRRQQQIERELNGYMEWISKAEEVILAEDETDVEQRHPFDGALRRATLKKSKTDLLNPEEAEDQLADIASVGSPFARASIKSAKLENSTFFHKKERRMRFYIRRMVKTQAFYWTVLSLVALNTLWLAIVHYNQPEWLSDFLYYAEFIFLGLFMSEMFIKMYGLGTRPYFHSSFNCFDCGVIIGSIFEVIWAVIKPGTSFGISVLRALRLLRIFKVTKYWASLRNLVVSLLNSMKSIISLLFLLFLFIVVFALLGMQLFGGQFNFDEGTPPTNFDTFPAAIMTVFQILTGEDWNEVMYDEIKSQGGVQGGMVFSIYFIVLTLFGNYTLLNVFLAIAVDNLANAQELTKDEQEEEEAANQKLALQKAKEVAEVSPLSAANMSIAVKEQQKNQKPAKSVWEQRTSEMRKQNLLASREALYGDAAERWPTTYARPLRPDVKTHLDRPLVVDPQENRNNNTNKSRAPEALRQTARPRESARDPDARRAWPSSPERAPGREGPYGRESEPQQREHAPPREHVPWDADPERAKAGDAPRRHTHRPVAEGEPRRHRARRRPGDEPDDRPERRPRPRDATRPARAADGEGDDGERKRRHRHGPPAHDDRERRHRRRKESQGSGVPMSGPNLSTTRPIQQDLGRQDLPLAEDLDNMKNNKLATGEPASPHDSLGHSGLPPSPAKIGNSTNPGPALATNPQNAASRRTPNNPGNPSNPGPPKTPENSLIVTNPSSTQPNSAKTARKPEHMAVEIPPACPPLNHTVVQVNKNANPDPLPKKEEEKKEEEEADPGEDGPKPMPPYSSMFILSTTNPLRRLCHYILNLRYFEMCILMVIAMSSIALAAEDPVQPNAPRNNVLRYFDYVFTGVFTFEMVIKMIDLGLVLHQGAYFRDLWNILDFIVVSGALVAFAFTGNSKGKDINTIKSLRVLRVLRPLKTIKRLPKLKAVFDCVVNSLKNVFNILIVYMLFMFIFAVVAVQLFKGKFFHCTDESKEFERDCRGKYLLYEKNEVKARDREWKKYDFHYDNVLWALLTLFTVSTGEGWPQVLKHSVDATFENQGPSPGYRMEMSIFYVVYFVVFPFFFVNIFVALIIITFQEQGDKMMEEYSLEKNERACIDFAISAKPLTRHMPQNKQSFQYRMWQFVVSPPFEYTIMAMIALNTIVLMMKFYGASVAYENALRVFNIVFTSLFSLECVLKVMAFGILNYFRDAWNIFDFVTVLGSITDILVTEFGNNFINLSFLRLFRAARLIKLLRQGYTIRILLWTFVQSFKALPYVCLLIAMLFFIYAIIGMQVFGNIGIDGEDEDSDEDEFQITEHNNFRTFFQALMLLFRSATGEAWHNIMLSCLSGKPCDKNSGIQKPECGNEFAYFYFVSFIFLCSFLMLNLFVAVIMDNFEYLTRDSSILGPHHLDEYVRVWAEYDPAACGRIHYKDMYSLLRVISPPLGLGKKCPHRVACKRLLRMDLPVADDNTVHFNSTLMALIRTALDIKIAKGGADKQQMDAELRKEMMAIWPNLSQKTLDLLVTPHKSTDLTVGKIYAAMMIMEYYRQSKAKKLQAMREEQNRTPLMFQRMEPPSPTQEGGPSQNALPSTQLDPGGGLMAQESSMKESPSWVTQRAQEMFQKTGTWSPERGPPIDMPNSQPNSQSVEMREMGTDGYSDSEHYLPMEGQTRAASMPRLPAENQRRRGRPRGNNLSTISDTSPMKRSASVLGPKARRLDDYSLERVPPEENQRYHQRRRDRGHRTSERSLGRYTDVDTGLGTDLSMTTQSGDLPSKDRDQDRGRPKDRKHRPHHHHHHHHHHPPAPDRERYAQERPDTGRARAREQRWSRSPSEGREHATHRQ

Target: endogenous rat CaV2.1 (rat (endogenous in rat forebrain)) (UniProt P54282)
Assay: co-IP; rat forebrain lysates immunoprecipitated with the anti-rat CaV2.1 antibody or rabbit IgG; immunoblot of endogenous proteins

binding: binds
B1: endogenous RNF138 (rat forebrain) (enzyme, UniProt Q99PD2 1-209)
chain: MSEELSADTSYTEDDFYCPVCQEVLKTPVRTAACQHVFCRKCFLTAMRESGIHCPLCRGSVTRRERACPERAIDLENIMRRVSGSCRCCSKKIKFYRMRHHYKSCKKYQDEYGVSSVIPNVKISQDSVRSSNRSETSASDNTETYQEDTSSSGHPTFKCPLCQESNFTRQRLLDHCNSNHLFQIVPVNLQLDEETQYQTAVEESFQVNM
